Measured values reported in the supplement of paper PMC10735217.
Some of the results follow. Repeats in this data set agree poorly, so a single value says little.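 Human kidney-derived cells stably carry a construct in which eight TEAD-binding elements drive luciferase, measured by luminescence in a drug-repurposing library screen. A hit is any compound whose signal exceeds the plate mean by more than five robust Z scores.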

Tested on: HEK293A TEAD-LUC reporter
Experiment: TEAD-luciferase reporter activity (YAP activation), robust Z score vs plate; higher = stronger YAP/TEAD activation
Conditions: 24 h

SMILES	TEAD-luciferase reporter activity (compound concentration: 200 nM)	TEAD-luciferase reporter activity (compound concentration: 2 uM)	TEAD-luciferase reporter activity (compound concentration: 10 uM)
CC(C)[C@H](NC(=O)OCc1ccccn1)C(=O)N[C@@H](Cc1ccccc1)[C@@H](O)C[C@H](Cc1ccccc1)NC(=O)OCc1cccnc1	inactive: -1.24	inactive: -1.29	inactive: -0.834
NC(=O)c1ccc(I)c([N+](=O)[O-])c1 [Iniparib]	inactive: 2.43	inactive: -0.935	inactive: -0.496
O=C(N[C@@H]1COc2nc([N+](=O)[O-])cn2C1)OCc1ccc(OC(F)(F)F)cc1	inactive: 0.0648	inactive: 0.716	inactive: 2.26
CCOc1ccc2c(-c3cccc(F)c3)nn(CC(=O)N(C)c3ccc4nc(C)oc4c3)c(=O)c2c1	inactive: -0.415	inactive: 0.816	inactive: -0.0698
CCOC(=O)CCc1nsnc1OCC(O)CNC(C)(C)C (stereo not drawn)	inactive: -0.52	inactive: -0.943	inactive: -0.925
CC(C)c1nnc(-c2ccc(-c3ccccc3)nc2)n1-c1cccc2nonc12	inactive: 0.431	inactive: -0.0498	inactive: -1.94
O=C(O)[C@@H](O)[C@H](O)[C@H](O)[C@@H](O)C(=O)O [Mucic acid]	inactive: 2.19	inactive: -1.22	inactive: -0.228
COC1(C2=NCCN2)COc2ccccc2O1 (stereo not drawn)	inactive: -1.2	–	inactive: 0.889
COC1(C2=NCCN2)COc2ccccc2O1 (stereo not drawn) [Methoxy-idazoxan]	–	inactive: 1.29	–
OC(=O)C[C@@H]1CCC(CC1)[C@H]1CCCN1c1ncc(cc1CN(c1nnn(n1)C)Cc1cc(cc(c1)C(F)(F)F)C(F)(F)F)C(F)(F)F (stereo partly drawn) [analog of TAK-472]	inactive: -1.28	inactive: -0.128	inactive: 1.27
COc1cc(Cl)cc(C(C)Nc2cc(N3CCNCC3)ccc2S(C)(=O)=O)c1OC (stereo not drawn)	inactive: -1.57	inactive: -1.44	inactive: 0.862
CC1CCCC(C)N1CCCC(O)(c1ccccc1)c1ccccn1 (stereo not drawn)	inactive: -0.27	inactive: 0.299	active: 7
CCn1cc([C@@]2(c3nn(C)c(=O)o3)N[C@@H](c3nc(-c4ccc(F)cn4)c[nH]3)Cc3c2[nH]c2ccccc32)cn1	inactive: -0.961	inactive: 0.134	inactive: 0.777
FC(F)(F)C(F)(F)C(F)(F)N(C(F)(F)C(F)(F)C(F)(F)F)C(F)(F)C(F)(F)C(F)(F)F [Perfluamine]	inactive: -0.14	inactive: -0.145	inactive: 1.16
CO[C@H]1CO[C@H]2[C@@H]1OC[C@H]2OC [dimethyl isosorbide]	–	inactive: -1.49	–
CO[C@H]1CO[C@H]2[C@@H]1OC[C@H]2OC [dimethyl isosorbide, ResCo]	inactive: 0.304	–	inactive: 1.79
O=C(OC[C@H]1O[C@@H](Oc2ccccc2CO)[C@H](O)[C@@H](O)[C@@H]1O)c1ccccc1	inactive: -0.886	inactive: -0.56	inactive: 0.919
CN1CCN(c2ncc(Sc3cccc(NC(=O)CN)c3)c(OCc3ccccc3)n2)CC1	inactive: -0.937	inactive: -1.59	inactive: 1.96

SMILES	TEAD-luciferase reporter activity (compound concentration: 200 nM)	TEAD-luciferase reporter activity (compound concentration: 2 uM)	TEAD-luciferase reporter activity (compound concentration: 10 uM)
CCS(=O)(=O)c1ccc2oc(-c3ccc4ccccc4c3)nc2c1 [Ezutromid]	–	inactive: -0.0399	–
CCS(=O)(=O)c1ccc2oc(-c3ccc4ccccc4c3)nc2c1	active: 5.73	–	inactive: -0.452
CCCCCCc1nc2c([nH]1)C(=O)N(C)C1=N[C@@H]3CCC[C@@H]3N12	inactive: 1.16	inactive: 1.98	active: 7.54
CCCCCCCCCCCCCCCCCC(=O)OC(CO)CO	inactive: -1.45	inactive: -1.45	inactive: -0.565
COc1cc2c(cc1OC)[C@H]1C[C@@H](OC(=O)[C@@H](N)C(C)C)[C@H](CC(C)C)CN1CC2	inactive: -2.83	inactive: -1.25	inactive: 0.362
C=CCn1nc(-c2ccc(Cl)cc2)n(C)c1=O	inactive: -1.29	inactive: -1.55	inactive: 2.51
CC(C)CC(=O)O[C@H](CC(=O)OC/C=C1\OC(=O)c2ccc(Cl)cc21)C[N+](C)(C)C	inactive: -1.16	inactive: -2.06	inactive: 0.447
CC(=O)O[C@]1(C(=O)COC(=O)CCC(=O)O)CC[C@H]2[C@@H]3CCC4=CC(=O)CCC4(C)[C@H]3CCC21C (stereo partly drawn)	inactive: -0.632	inactive: 0.457	inactive: 0.479
COc1ccc(C2Sc3ccccc3N(CCN(C)C(C)C)C(=O)C2OC(C)=O)cc1 (stereo not drawn)	inactive: 0.517	inactive: -1.16	inactive: -1.27
[O-]Cl	–	inactive: 1.08	inactive: -0.797
Cn1c(=O)cnn(CCCCN2CCN(c3ncccn3)CC2)c1=O	inactive: -1.19	inactive: -1.54	inactive: 0.625
CC(C)CC(=O)O[C@H](CC(=O)[O-])C[N+](C)(C)C	inactive: -0.474	inactive: -2.28	inactive: 0.73
C/C=C/C(=O)N(CC)C(CC)C(=O)N(C)C (stereo not drawn)	inactive: -1.1	inactive: 0.476	inactive: 0.798
C[C@@H]1C[C@H]2[C@@H]3CCC4=CC(=O)C=C[C@]4(C)[C@@]3(F)[C@@H](O)C[C@]2(C)[C@@]1(OC(=O)C1CC1)C(=O)COC(=O)C1CCCCC1	inactive: -0.363	inactive: 0.937	inactive: 4.45
CC(C)C(=O)OC[C@@]1(CCl)O[C@@H](n2ccc(N)nc2=O)[C@H](F)[C@@H]1OC(=O)C(C)C	inactive: -0.633	inactive: 0.441	inactive: 0.828
Nc1ncnc2c1nc(Cl)n2C1OC2COP(=O)(O)OC2C1O (stereo not drawn) [tocladesine]	inactive: 0.236	inactive: -0.696	inactive: 1
O=C(O)CNC(=O)CCSC(=O)c1ccccc1O [metabolite of EP-322]	inactive: -1.65	inactive: -1.67	inactive: -0.487
CCOC(=O)NNc1nncc2ccccc12	inactive: -0.0062	inactive: -0.0368	inactive: 2.99

Single records, from the list above.
COc1ccc(C2Sc3ccccc3N(CCN(C)C(C)C)C(=O)C2OC(C)=O)cc1 (stereo not drawn) is entered as TEAD-luciferase reporter activity (compound concentration: 200 nM): inactive: 0.517; TEAD-luciferase reporter activity (compound concentration: 2 uM): inactive: -1.16; TEAD-luciferase reporter activity (compound concentration: 10 uM): inactive: -1.27
O=C(N[C@@H]1COc2nc([N+](=O)[O-])cn2C1)OCc1ccc(OC(F)(F)F)cc1 is entered as TEAD-luciferase reporter activity (compound concentration: 200 nM): inactive: 0.0648; TEAD-luciferase reporter activity (compound concentration: 2 uM): inactive: 0.716; TEAD-luciferase reporter activity (compound concentration: 10 uM): inactive: 2.26
